{"sequences": {"note": "Protein sequences, listed by entry. Tags and fused reporters are not part of them. Lines headed by an entry give the natural chain unless they say otherwise; changes in a name come on top. Chains listed by the source or under a name are the forms on record and can include a tag or linker.", "KIX domain of CBP coactivator (KIX region 586-672) (P45481, form named)": "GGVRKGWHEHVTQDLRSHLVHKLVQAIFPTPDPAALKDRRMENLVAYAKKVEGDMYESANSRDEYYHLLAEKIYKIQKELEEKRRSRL"}, "source": "paper doi:10.1101/2024.03.15.585150", "about": "(bioRxiv, 2024)", "molecular_target": "native Sp1-9aaTAD peptide, Biotin-GSS-…", "assay": "BLI", "note": "No constants are given. Whether binding was seen depends on the method and setting."}
{"substance": "KIX domain of CBP coactivator (KIX region 586-672) (from UniProt P45481 586-672) (domain or fragment)", "values": [{"measurement": "binding", "result": "no binding (tested: 3-16 μM)"}]}
